Assay results published in US8658639B2, “N-substituted-cyclic amino derivative” (Dainippon Sumitomo Pharma Co., Ltd, priority 2009, dated 2014).
The name of at least one read-out is uncertain.

Test system: dTGR (double transgenic: rats transgenic for human renin/angiotensinogen)
Experiment: Hypotensive evaluation test using double transgenic rats, and combination effect test
Assay type: in vivo
Conditions: single administration of a single drug or two drugs, n = 3, change from data before administration, valsartan 2 mg/kg, amlodipine besylate 5 mg/kg, hydrochlorothiazide 20 mg/kg

In the case of CCOC(=O)C1=C(COCCN)NC(C)=C(C(=O)OC)C1c1ccccc1Cl (stereo not shown) [amlodipine besylate, reference compound], the “Decreased amount of Average blood pressure (mmHg)” value is reported as 27.5 mmHg.
